{"source": "PubChem BioAssay AID1259425 (University of Nebraska Medical Center, 2018)", "purpose": "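Seek colon cancer weak points whose silencing resembles KSR1 loss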 (primary screen)", "system": "HCT116 human colon cancer cells", "reagent": "siRNA pool against human genes, 50 nM siRNA", "measured": "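After 50 nM siRNA pool, branched-DNA assay measures six marker transcripts per well, minus blank, normalised to the geometric mean of two housekeeping transcripts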", "reading the numbers": "BNIP3L mRNA: higher = more BNIP3L transcript after knockdown", "note": "The whole screen tested about 14,000 reagents; this is a part drawn at random. Further read-outs or replicates are left out here. Not given: the time to read-out."}
{"target": "GNAQ", "BNIP3L mRNA, set 1": 0.0577}
{"target": "MMP16", "BNIP3L mRNA, set 1": 0.0664}
{"target": "ATP1A1", "BNIP3L mRNA, set 1": 0.165}
{"target": "SLC12A9", "BNIP3L mRNA, set 1": 0.182}
{"target": "LRPPRC", "BNIP3L mRNA, set 1": 0.146}
{"target": "MREG", "BNIP3L mRNA, set 1": 0.0952}
{"target": "EXOSC10", "BNIP3L mRNA, set 1": 0.064}
{"target": "WNT4", "BNIP3L mRNA, set 1": 0.122}
{"target": "CEMIP2", "BNIP3L mRNA, set 1": 0.122}
{"target": "YIF1A", "BNIP3L mRNA, set 1": 0.156}
{"target": "PYCARD", "BNIP3L mRNA, set 1": 0.074}
{"target": "CLDN17", "BNIP3L mRNA, set 1": 0.214}
{"target": "GPR85", "BNIP3L mRNA, set 1": 0.158}
{"target": "CCL28", "BNIP3L mRNA, set 1": 0.109}
{"target": "XPNPEP2", "BNIP3L mRNA, set 1": 0.148}
{"target": "DUSP14", "BNIP3L mRNA, set 1": 0.138}
{"target": "FARP1", "BNIP3L mRNA, set 1": 0.171}
{"target": "TLR2", "BNIP3L mRNA, set 1": 0.0877}
{"target": "TRIAP1", "BNIP3L mRNA, set 1": 0.171}
{"target": "VDR", "BNIP3L mRNA, set 1": 0.0746}
{"target": "PARD3", "BNIP3L mRNA, set 1": -0.00842}
{"target": "DHX32", "BNIP3L mRNA, set 1": 0.134}
{"target": "UPF1", "BNIP3L mRNA, set 1": 0.0715}
{"target": "ACAD9", "BNIP3L mRNA, set 1": 0.081}
{"target": "CD7", "BNIP3L mRNA, set 1": 0.124}
{"target": "RELB", "BNIP3L mRNA, set 1": 0.063}
{"target": "TNNI2", "BNIP3L mRNA, set 1": 0.124}
{"target": "HOXA6", "BNIP3L mRNA, set 1": 0.105}

4 entries already listed, sorted by “BNIP3L mRNA, set 1”, lowest first:
{"target": "PYCARD", "BNIP3L mRNA, set 1": 0.074}
{"target": "CEMIP2", "BNIP3L mRNA, set 1": 0.122}
{"target": "YIF1A", "BNIP3L mRNA, set 1": 0.156}
{"target": "CLDN17", "BNIP3L mRNA, set 1": 0.214}
